13 molecules from paper PMC4467156, “A new chemical inhibitor of angiogenesis and tumorigenesis that targets the VEGF signaling pathway upstream of Ras” (Oncotarget, 2015) can be followed below.

Where “and” joins values, the source holds several entries; their conditions need not be identical. Equal values may be shown once. Where a name gives a salt, the structure may show the parent alone.

The series deals with HMEC-GFP cells. As to the kind of experiment: Scratch wound closure assay, HMEC-GFP. It is filed as cell-based, human. The following applies: IC50 3T3-GFP / IC50 HMEC-GFP. An excerpt: In order to adapt the endothelial scratch wounding assay to the constraints of high throughput screening, we decided to use an endothelial cell line rather than primary cultures for the sake of reproducibility. Since angiogenesis is triggered by capillary endothelial cells, we selected the HMEC-1 cell line which consists of human dermal microvascular endothelial cells stably expressing SV40 […] antigen. We infected this cell line with GFP-encoding retroviral particles and selected one clone (thereafter named HMEC-GFP) that presented a high level of fluorescence and a strong proliferation rate (doubling time in the presence of serum: 22 h). We controlled that GFP expression was stable over at least 50 passages and that these cells still expressed endothelial markers such as VE-cadherin and CD31. In a standard assay, HMEC-GFP cells were grown until confluence in 96-well plates in the presence of serum, scratched with the multi-tip dispenser of the HTS automat, gently rinsed twice to eliminate detached cells and cell debris that could liberate inflammatory and potentially angiogenic cytokines, and incubated for 24 h in the presence of serum and the compounds to be tested. Each well was photographed at time 0 h (after wounding) and 24 h under a motorized epifluorescence microscope and the digitized images were analyzed using Image J to determine the percentage of wound closure (Figure 1A, 1B). Under our standard conditions, the closure rate was 72 ± 4% in the positive controls and 27 ± 4.% in the negative controls.
Confluent cell monolayers were wounded with a plastic pipet tip, washed gently with phosphate buffer saline (PBS) and treated with complete media containing molecules, as indicated. Cells were placed at 37°C into the incubator and photographed at indicated times. Quantitation of closure of the monolayer was performed using the NIH Image J program (http://rsbweb.nih.gov/ij/). Results are expressed as percentage of wound closure at t = 24 h as compared to the initial wound at t = 0 h.
Take `CN(C)c1cccc2c(S(=O)(=O)NCCCN3CCN(CCCNC(=O)OC(C)(C)C)CC3)cccc12` [COB223, tert-Butyl 3-(4-(3-(5-(dimethylamino)naphthalene-1-sulfonamido)propyl)piperazin-1-yl) propylcarbamate]: the “Activity(HMEC vs 3T3), ratio between the IC50s on both cell types” value worked out at 5.
The result for `CN(C)c1cccc2c(S(=O)(=O)NCCCNS(=O)(=O)c3cccc4c(N(C)C)cccc34)cccc12` [Compound 05-06-F11, 1,3-bis [5-(Dimethylamino)naphthalene-1-sulfonamido] diaminopropane] reads 2.6.
Next, `CN(C)CCCNS(=O)(=O)c1cccc2c(N(C)C)cccc12` [COB221, 5-(Dimethylamino)-N-[3-(dimethylamino)propyl]naphthalene-1-sulfonamide]: 7.5; `CN(C)c1cccc2c(S(=O)(=O)NCCCO)cccc12` [COB220, 5-(Dimethylamino)-N-[3-hydroxypropyl]naphthalene-1-sulfonamide]: more than 1.25.
Regarding `O=C1c2cccc3cc([N+](=O)[O-])cc(c23)C(=O)N1CCCNCCCN1C(=O)c2cccc3cc([N+](=O)[O-])cc(c23)C1=O` [COB278, Bis-[(3-nitro-1,8-naphthalimido)propyl]amine], the “Activity(HMEC vs 3T3), ratio between the IC50s on both cell types” value came out at 2.
The result for `NCCCN1CCN(CCCN2C(=O)c3cccc4cccc(c34)C2=O)CC1` [COB228, N-{3-[4-(3-Aminopropyl)piperazin-1-yl]propyl}-1,8-naphthalimide hydrochloride] reads 1.6; that for `CC(C)(C)OC(=O)NCCCN1CCN(CCCNS(=O)(=O)c2cccc3ccccc23)CC1` [COB235, tert-Butyl 3-(4-(3-(naphthalene-1-sulfonamido)propyl)piperazin-1-yl) propylcarbamate], more than 1.25.
Next, “N-(5-(Dimethylamino)naphthalene-1-sulfonamido)-N'-(tert-butoxycarbonyl)-1,3-diamino-propane [Compound 05-102-B09]”: 8.3.
The result for “N-(5-(Dimethylamino)naphthalene-1-sulfonamido)-1,3-diamino-propane [Compound 05-06-L-D03]” reads 8; that for `CN(C)c1ccc2c3c(cccc13)C(=O)N(CCCNCCCNC(=O)OC(C)(C)C)C2=O` [COB275, N-[3-((3-tert-Butoxycarbonylaminopropyl)amino)propyl]-4-dimethylamino-1,8-naphthalimide], 4.
`NCCCCCCNS(=O)(=O)c1cccc2c(Cl)cccc12` [Compound W7, reference compound]: the “Activity(HMEC vs 3T3), ratio between the IC50s on both cell types” value is given as 1.
Next, `CC(C)(C)OC(=O)NCCCN1CCN(CCCN2C(=O)c3cccc4cccc(c34)C2=O)CC1` [COB227, N-{3-[4-(3-tert-Butoxycarbonylaminopropyl)piperazin-1-yl]propyl}-1,8-naphthalimide]: 14 and 13.9.
Next, `CC(C)(C)OC(=O)NCCCN1CCN(CCCNC(=O)OCc2ccc([N+](=O)[O-])cc2)CC1` [COB238, 4-Nitrobenzyl N-[3-(4-{3-[(tert-butoxycarbonyl)amino]propyl}piperazin-1-yl)propyl] carbamate]: more than 2.5.
